# Results reported in the supplement of paper PMC7830784.
# Several values for one entry are separate records, joined by “and”; a condition that tells them apart may be missing. Equal entries are not always repeated. Structures can show the parent of a compound that is named as a salt. Some of the results follow. This data set is noisy: repeats of one test often differ as much as different tests do.
# System: Brugia pahangi adult female
# Test: motility inhibition on day 3 relative to DMSO vehicle; higher = more active
# Conditions: 10 µM; 3 days
row,SMILES,motility inhibition on day 3
1,CC1(C)S[C@@H]2[C@H](NC(=O)C(C(=O)O)c3ccccc3)C(=O)N2[C@H]1C(=O)O (stereo partly drawn) [carbenicillin disodium],33.4%
2,C[C@H](N)[C@H](O)c1cccc(O)c1 [metaraminol bitartrate],2.68% and 17.8%
3,Cc1ccccc1OCC(O)CO (stereo not drawn) [mephenesin],4.75%
4,O=C1CN(/N=C/c2ccc([N+](=O)[O-])o2)C(=O)N1 [nitrofurantoin],66.9%
5,CC(C)(C)C(=O)C(Oc1ccc(Cl)cc1)n1ccnc1 (stereo not drawn) [climbazole],1.88%
6,Cc1cc(NS(=O)(=O)c2ccc(N)cc2)no1 [sulfamethoxazole],19%
7,CN[C@@H]1[C@@H](O)[C@@H](O[C@@H]2[C@@H](O)[C@H](O[C@H]3OC(CN)=CC[C@H]3N)[C@@H](N)C[C@H]2N)OC[C@]1(C)O [sisomicin sulfate],19%
8,CC1(C)S[C@@H]2[C@H](NC(=O)[C@H](C(=O)O)c3ccsc3)C(=O)N2[C@H]1C(=O)O [ticarcillin disodium],15.8%
9,CCOC(=O)n1ccn(C)c1=S [carbimazole],24.8%
10,CC1(O)CCC(C(C)(C)O)CC1 (stereo not drawn) [terpene hydrate],40.2%
11,CCC(=O)Oc1ccc2c(c1)CC[C@@H]1[C@@H]2CC[C@]2(C)[C@@H](OC(=O)CC)CC[C@@H]12 [estradiol dipropionate],18.9%
12,O=C1CN(/N=C/c2ccc(-c3ccc([N+](=O)[O-])cc3)o2)C(=O)N1 [dantrolene sodium],0.665%
13,CC(C)OC(=O)CCC/C=C\C[C@@H]1[C@@H](/C=C/[C@@H](O)COc2cccc(C(F)(F)F)c2)[C@H](O)C[C@@H]1O [travoprost],15.4%
14,CCN(CC)CCOc1ccc2c(c1)C(=O)c1cc(OCCN(CC)CC)ccc1-2 [tilorone],7.97%
15,CC1(C)O[C@@H]2C[C@H]3[C@@H]4CCC5=CC(=O)C=C[C@]5(C)[C@H]4[C@@H](O)C[C@]3(C)[C@]2(C(=O)CO)O1 [desonide],6.81%
16,CCNC(=O)CCC/C=C\C[C@@H]1[C@@H](/C=C/[C@@H](O)CCc2ccccc2)[C@H](O)C[C@@H]1O [Bimatoprost],2.2%
17,NC[C@H]1O[C@H](O[C@H]2[C@H](O)[C@@H](O[C@H]3O[C@H](CO)[C@@H](O)[C@H](N)[C@H]3O)[C@H](N)C[C@@H]2N)[C@H](O)[C@@H](O)[C@@H]1O [kanamycin sulfate],31%
18,CC[C@H]1OC(=O)C[C@@H](O)[C@H](C)[C@@H](O[C@@H]2O[C@H](C)[C@@H](O[C@H]3C[C@@](C)(O)[C@@H](O)[C@H](C)O3)[C@H](N(C)C)[C@H]2O)[C@@H](CC=O)C[C@@H](C)C(=O)/C=C/C(C)=C/[C@@H]1CO[C@@H]1O[C@H](C)[C@@H](O)[C@@H](OC)[C@H]1OC [tylosin tartrate],0.958%
19,O=C(CCCCCCC(=O)Nc1ccccc1)NO [vorinostat],0.247%
20,"Nc1c2c(nc3ccccc13)CCCC2 [9-Amino-1,2,3,4-tetrahydroacridine hydrochloride]",28%
21,C/C(=C(\CCOP(=O)(O)O)SC(=O)c1ccccc1)N(C=O)Cc1cnc(C)nc1N [benfotiamine],< 0%
22,CCN(CC)C(=S)SSC(=S)N(CC)CC [disulfiram],67%
23,C=C[C@@]1(C)CC(=O)[C@]2(O)[C@@]3(C)[C@@H](O)CCC(C)(C)[C@@H]3[C@H](O)[C@H](OC(C)=O)[C@@]2(C)O1 [colforsin],6.26%

# Taken from above:
# Under motility inhibition on day 3, CCC(=O)Oc1ccc2c(c1)CC[C@@H]1[C@@H]2CC[C@]2(C)[C@@H](OC(=O)CC)CC[C@@H]12 [estradiol dipropionate] is listed with 18.9%
# Under motility inhibition on day 3, CC1(O)CCC(C(C)(C)O)CC1 (stereo not drawn) [terpene hydrate] is listed with 40.2%

# The results go on.

row,SMILES,motility inhibition on day 3
1,CN(Cc1cnc2nc(N)nc(N)c2n1)c1ccc(C(=O)NC(CCC(=O)O)C(=O)O)cc1 (racemic) [methotrexate(+/-)],28.2%
2,CCOc1cc(CC(=O)N[C@@H](CC(C)C)c2ccccc2N2CCCCC2)ccc1C(=O)O [repaglinide],9.47%
3,C#C[C@]1(O)CC[C@H]2[C@@H]3CCc4cc(O)ccc4[C@H]3CC[C@@]21C [ethinyl estradiol],18.5%
4,CCCCCN(CCCCC)C(=O)C(CCC(=O)O)NC(=O)c1ccc(Cl)c(Cl)c1 (stereo not drawn) [Lorglumide sodium],19.8%
5,CC(C)(C)NC(=O)[C@@H]1C[C@@H]2CCCC[C@@H]2CN1C[C@@H](O)[C@H](Cc1ccccc1)NC(=O)[C@H](CC(N)=O)NC(=O)c1ccc2ccccc2n1 [Saquinavir Mesylate],1.24%
6,Nc1nc2c(ncn2COCCO)c(=O)[nH]1 [Acyclovir],33.1%
7,COc1ccc(C(=O)CC(=O)c2ccc(C(C)(C)C)cc2)cc1 [avobenzone],9.49%
8,COc1ncnc(NS(=O)(=O)c2ccc(N)cc2)c1OC [sulfadoxine],7.71%
9,CC(=O)OCC(=O)[C@@]1(O)[C@H](C)C[C@H]2[C@@H]3CCC4=CC(=O)C=C[C@]4(C)[C@@]3(F)[C@@H](O)C[C@@]21C [dexamethasone acetate],2.37%
10,COc1c(N2C[C@@H]3CCCN[C@@H]3C2)c(F)cc2c(=O)c(C(=O)O)cn(C3CC3)c12 [moxifloxacin hydrochloride],< 0%
11,COc1ccc(C(=O)c2ccccc2)c(O)c1 [oxybenzone],13.7%
12,CN1[C@@H]2CC[C@H]1CC(OC(=O)c1c[nH]c3ccccc13)C2 (stereo partly drawn) [3-Tropanyl-indole-3-carboxylate hydrochloride],< 0%
13,CCCC1O[C@@H]2C[C@H]3[C@@H]4CCC5=CC(=O)C=C[C@]5(C)[C@H]4[C@@H](O)C[C@]3(C)[C@]2(C(=O)CO)O1 (stereo partly drawn) [budesonide],< 0%
14,CCOC(=O)[C@H](CCc1ccccc1)N[C@H]1CCCN2CCC[C@@H](C(=O)O)N2C1=O [Cilazapril],< 0%
15,Nc1nc(N)c2nc(CNc3ccc(C(=O)N[C@@H](CCC(=O)O)C(=O)O)cc3)cnc2n1 [Aminopterin],< 0%
16,CC(C(=O)O)c1cccc(C(=O)c2ccccc2)c1 (stereo not drawn) [ketoprofen],33.4%
17,CCOC(=O)c1ncn2c1CN(C)C(=O)c1cc(F)ccc1-2 [flumazenil],6.86%
18,O=NN(CCCl)C(=O)NCCCl [carmustine],< 0%
19,C/N=C(\NC)NCc1ccccc1 [Bethanidine],10%
20,CC(=O)CCCCn1c(=O)c2c(ncn2C)n(C)c1=O [Pentoxifylline],2.19%
21,CN1C(=O)OC(C)(C)C1=O [trimethadione],5.86%
22,CN(C/C=C/c1ccccc1)Cc1cccc2ccccc12 [naftifine hydrochloride],11.3%
23,C[C@H]1O[C@@H](n2cc(F)c(=O)[nH]c2=O)[C@H](O)[C@@H]1O [5-fluoro-5'-deoxyuridine],22.1%

row,SMILES,motility inhibition on day 3
1,CCN1CCCC(OC(=O)C(c2ccccc2)c2ccccc2)C1 (stereo not drawn) [piperidolate hydrochloride],< 0%
2,Nc1ccc(C(=O)O)cc1 [potassium p-aminobenzoate],< 0%
3,O=C(O)c1ccc(S(=O)(=O)N(Cl)Cl)cc1 [halazone],35.6%
4,O=C(Oc1ccccc1C(=O)O)c1ccccc1O [salsalate],< 0%
5,COc1c(C)c2c(c(O)c1C/C=C(\C)CCC(=O)O)C(=O)OC2 [mycophenolic acid],24.2%
6,CCCCCNC(=N)N/N=C/c1c[nH]c2ccc(OC)cc12 [tegaserod maleate],15.3%
7,NCCNCCNCCN [trientine hydrochloride],18%
8,CNCCCC12CCC(c3ccccc31)c1ccccc12 [maprotiline hydrochloride],25%
9,CO/N=C(\C(=O)N[C@@H]1C(=O)N2C(C(=O)[O-])=C(C[N+]3(C)CCCC3)CS[C@H]12)c1csc(N)n1 [Cefepime],28.8%
10,OC(c1cc(C(F)(F)F)nc2c(C(F)(F)F)cccc12)C1CCCCN1 (stereo not drawn) [mefloquine],7.91%
11,NC[C@@H](O)c1ccc(O)c(O)c1 [L(-)-Norepinephrine bitartrate],3.83%
12,CC1(C)C[C@@H]1C(=O)N/C(=C\CCCCSC[C@H](N)C(=O)O)C(=O)O [Cilastatin],23.7%
13,CCCCCC(=O)O[C@]1(C(C)=O)CC[C@H]2[C@@H]3CCC4=CC(=O)CC[C@]4(C)[C@H]3CC[C@@]21C [hydroxyprogesterone caproate],5.23%
14,CC(=O)O[C@H]1C[C@@H]2CC[C@@H]3[C@H](CC[C@@]4(C)[C@H]3C[C@H]([N+]3(C)CCCCC3)[C@@H]4OC(C)=O)[C@@]2(C)C[C@@H]1N1CCCCC1,< 0%
15,CC(=O)O[C@H]1C[C@@H]2CC[C@@H]3[C@H](CC[C@@]4(C)[C@H]3C[C@H]([N+]3(C)CCCCC3)[C@@H]4OC(C)=O)[C@@]2(C)C[C@@H]1N1CCCCC1 [vecuronium bromide],< 0%
16,Cc1cc(C)cc(OCC2CNC(=O)O2)c1 (stereo not drawn) [metaxalone],37.3%
17,C[C@@H](O)[C@H]1C(=O)N2C(C(=O)O)=C(S[C@@H]3CN[C@H](C(=O)N(C)C)C3)[C@H](C)[C@H]12 [meropenem],2.33%
18,C[C@@H](O)[C@H]1C(=O)N2C(C(=O)O)=C(S[C@@H]3CN[C@H](C(=O)N(C)C)C3)[C@H](C)[C@H]12,1.02%
19,C[C@@H]1O[C@@H](OC[C@H]2O[C@@H](Oc3c(-c4ccc(OCCO)c(OCCO)c4)oc4cc(OCCO)cc(O)c4c3=O)[C@H](O)[C@@H](O)[C@@H]2O)[C@H](O)[C@H](O)[C@H]1O [troxerutin],0.433%
20,CCN(CC)C(=O)/C(C#N)=C/c1cc(O)c(O)c([N+](=O)[O-])c1 [entacapone],7.5%
21,C[C@]12C=CC(=O)C=C1CC[C@H]1[C@@H]3C[C@@H](O)[C@](O)(C(=O)CO)[C@@]3(C)C[C@H](O)[C@@]12F [triamcinolone],6.42%
22,CC[C@H](C)C(=O)O[C@H]1C[C@@H](C)C=C2C=C[C@H](C)[C@H](CC[C@@H]3C[C@@H](O)CC(=O)O3)[C@H]21 [lovastatin],11.5%

# Reprinted from the results shown for reference:
row,SMILES,motility inhibition on day 3
4,CCCCCN(CCCCC)C(=O)C(CCC(=O)O)NC(=O)c1ccc(Cl)c(Cl)c1 (stereo not drawn) [Lorglumide sodium],19.8%
5,CC(C)(C)NC(=O)[C@@H]1C[C@@H]2CCCC[C@@H]2CN1C[C@@H](O)[C@H](Cc1ccccc1)NC(=O)[C@H](CC(N)=O)NC(=O)c1ccc2ccccc2n1 [Saquinavir Mesylate],1.24%
